Laboratory results reported in ChEMBL document CHEMBL1147174, “Discovery of 1,4-dihydroindeno[1,2-c]pyrazoles as a novel class of potent and selective checkpoint kinase 1 inhibitors” (Bioorg Med Chem, 2007).
pIC50: −log10 of the molar value.

Amino acid sequences for entries named in this document (tags omitted). A change or cut given only in a name is not applied to a line headed by its entry.
UniProt O96017, whole entry: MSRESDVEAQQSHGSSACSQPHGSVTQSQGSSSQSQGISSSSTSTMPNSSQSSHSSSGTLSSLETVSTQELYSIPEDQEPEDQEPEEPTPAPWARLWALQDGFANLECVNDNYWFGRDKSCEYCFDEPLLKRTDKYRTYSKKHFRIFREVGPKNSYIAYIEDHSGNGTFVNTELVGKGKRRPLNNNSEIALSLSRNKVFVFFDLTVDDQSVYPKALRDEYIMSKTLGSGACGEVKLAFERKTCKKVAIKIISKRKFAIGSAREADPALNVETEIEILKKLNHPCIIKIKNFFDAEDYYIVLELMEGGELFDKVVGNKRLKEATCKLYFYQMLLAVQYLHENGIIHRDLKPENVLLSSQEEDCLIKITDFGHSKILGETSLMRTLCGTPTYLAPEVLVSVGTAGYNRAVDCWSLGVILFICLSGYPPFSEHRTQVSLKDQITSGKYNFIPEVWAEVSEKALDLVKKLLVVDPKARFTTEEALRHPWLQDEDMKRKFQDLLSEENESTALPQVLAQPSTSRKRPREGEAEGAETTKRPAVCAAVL
UniProt Q05655: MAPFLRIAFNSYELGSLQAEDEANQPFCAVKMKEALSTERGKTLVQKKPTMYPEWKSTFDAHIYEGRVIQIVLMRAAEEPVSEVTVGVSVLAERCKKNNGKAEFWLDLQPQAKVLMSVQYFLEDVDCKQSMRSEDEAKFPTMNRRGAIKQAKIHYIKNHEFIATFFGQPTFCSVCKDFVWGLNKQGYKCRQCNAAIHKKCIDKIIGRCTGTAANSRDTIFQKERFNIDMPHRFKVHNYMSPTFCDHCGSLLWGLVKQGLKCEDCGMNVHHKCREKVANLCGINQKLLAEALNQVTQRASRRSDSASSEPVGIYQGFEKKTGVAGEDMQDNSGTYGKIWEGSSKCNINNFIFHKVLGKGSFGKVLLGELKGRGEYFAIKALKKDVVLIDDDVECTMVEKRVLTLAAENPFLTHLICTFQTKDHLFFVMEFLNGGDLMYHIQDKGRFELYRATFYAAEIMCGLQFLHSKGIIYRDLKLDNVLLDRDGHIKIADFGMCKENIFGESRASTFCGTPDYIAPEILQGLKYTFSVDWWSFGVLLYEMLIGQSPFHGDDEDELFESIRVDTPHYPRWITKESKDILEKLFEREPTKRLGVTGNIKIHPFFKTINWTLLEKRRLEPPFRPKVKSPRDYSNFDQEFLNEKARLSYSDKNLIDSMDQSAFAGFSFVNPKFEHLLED
UniProt P28482, whole entry: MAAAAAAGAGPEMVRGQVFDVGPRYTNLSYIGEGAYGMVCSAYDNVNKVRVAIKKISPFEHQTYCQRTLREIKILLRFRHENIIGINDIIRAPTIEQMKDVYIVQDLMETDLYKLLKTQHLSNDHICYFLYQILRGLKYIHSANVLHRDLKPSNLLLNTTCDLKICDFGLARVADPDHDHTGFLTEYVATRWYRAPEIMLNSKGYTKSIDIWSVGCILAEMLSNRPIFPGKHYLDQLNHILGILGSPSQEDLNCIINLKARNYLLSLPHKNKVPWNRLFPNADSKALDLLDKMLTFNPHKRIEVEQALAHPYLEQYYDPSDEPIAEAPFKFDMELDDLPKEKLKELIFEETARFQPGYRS
UniProt P12931: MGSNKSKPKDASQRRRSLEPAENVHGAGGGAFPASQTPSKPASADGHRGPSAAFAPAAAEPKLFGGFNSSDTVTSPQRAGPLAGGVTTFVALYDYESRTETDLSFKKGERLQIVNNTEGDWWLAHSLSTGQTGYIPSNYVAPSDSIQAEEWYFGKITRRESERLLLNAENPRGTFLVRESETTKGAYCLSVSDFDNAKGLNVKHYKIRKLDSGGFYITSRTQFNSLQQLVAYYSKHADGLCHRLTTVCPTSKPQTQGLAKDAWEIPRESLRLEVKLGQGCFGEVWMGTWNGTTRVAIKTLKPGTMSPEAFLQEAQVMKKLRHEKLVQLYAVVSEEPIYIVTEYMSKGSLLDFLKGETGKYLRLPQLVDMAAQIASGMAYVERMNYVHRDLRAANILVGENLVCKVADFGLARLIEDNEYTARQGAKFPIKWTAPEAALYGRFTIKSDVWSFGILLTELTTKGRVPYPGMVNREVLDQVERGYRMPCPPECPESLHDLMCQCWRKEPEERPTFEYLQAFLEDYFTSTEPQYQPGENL
UniProt P06493, whole entry: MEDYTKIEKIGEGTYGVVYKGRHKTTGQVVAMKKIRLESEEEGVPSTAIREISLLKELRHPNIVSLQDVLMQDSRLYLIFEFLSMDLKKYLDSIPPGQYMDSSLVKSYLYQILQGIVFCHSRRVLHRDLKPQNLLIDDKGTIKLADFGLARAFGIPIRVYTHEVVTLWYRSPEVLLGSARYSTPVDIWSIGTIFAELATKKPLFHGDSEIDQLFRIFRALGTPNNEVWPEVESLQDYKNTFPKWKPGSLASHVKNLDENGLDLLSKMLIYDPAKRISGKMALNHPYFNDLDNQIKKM
UniProt P19784, whole entry: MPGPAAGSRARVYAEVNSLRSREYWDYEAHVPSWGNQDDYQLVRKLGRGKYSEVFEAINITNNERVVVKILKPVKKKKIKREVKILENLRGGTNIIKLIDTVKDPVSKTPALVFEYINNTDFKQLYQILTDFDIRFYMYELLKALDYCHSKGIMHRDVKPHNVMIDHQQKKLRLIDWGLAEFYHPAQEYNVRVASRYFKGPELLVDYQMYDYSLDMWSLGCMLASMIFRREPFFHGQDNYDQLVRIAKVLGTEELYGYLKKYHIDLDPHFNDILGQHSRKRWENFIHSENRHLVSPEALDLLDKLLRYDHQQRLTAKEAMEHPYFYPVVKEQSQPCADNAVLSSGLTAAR
UniProt P67870, whole entry: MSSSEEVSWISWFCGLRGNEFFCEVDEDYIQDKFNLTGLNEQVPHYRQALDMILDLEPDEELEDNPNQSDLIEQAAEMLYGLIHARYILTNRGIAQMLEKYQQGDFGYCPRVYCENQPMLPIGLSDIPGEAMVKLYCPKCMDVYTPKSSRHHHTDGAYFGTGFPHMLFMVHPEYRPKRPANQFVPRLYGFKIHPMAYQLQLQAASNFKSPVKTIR
UniProt P68400, whole entry: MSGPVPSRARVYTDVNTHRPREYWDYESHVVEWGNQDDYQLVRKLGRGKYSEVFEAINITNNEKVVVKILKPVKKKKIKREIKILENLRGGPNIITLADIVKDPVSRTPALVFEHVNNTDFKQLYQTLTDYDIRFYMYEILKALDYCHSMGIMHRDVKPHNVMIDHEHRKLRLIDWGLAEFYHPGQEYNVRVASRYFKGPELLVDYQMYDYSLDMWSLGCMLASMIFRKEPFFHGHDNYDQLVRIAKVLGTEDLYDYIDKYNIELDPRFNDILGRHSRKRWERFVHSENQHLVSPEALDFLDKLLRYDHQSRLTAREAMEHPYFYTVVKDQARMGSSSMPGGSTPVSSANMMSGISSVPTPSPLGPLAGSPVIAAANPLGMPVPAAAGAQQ
UniProt P49137, whole entry: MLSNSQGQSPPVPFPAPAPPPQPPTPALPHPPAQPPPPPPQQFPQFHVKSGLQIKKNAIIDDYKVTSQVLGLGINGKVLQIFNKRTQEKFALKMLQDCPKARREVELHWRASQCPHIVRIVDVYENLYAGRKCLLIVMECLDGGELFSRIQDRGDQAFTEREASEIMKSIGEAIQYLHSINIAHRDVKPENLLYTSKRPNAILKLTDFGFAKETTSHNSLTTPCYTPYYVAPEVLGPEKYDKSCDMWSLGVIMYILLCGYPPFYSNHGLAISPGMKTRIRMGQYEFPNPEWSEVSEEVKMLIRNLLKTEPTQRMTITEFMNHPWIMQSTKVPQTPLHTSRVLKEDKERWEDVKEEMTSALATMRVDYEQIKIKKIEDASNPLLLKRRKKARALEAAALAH

How the values were obtained:
[1] = target: Serine/threonine-protein kinase Chk2 (Homo sapiens, UniProt O96017)
[2] = target: Protein kinase C delta type (Homo sapiens, UniProt Q05655)
[3] = target: Protein kinase C gamma type (Homo sapiens, UniProt P05129)
[4] = target: T1, Serine/threonine-protein kinase MARK2 (Homo sapiens, UniProt Q7KZI7)
T1 sequence (Q7KZI7 whole entry): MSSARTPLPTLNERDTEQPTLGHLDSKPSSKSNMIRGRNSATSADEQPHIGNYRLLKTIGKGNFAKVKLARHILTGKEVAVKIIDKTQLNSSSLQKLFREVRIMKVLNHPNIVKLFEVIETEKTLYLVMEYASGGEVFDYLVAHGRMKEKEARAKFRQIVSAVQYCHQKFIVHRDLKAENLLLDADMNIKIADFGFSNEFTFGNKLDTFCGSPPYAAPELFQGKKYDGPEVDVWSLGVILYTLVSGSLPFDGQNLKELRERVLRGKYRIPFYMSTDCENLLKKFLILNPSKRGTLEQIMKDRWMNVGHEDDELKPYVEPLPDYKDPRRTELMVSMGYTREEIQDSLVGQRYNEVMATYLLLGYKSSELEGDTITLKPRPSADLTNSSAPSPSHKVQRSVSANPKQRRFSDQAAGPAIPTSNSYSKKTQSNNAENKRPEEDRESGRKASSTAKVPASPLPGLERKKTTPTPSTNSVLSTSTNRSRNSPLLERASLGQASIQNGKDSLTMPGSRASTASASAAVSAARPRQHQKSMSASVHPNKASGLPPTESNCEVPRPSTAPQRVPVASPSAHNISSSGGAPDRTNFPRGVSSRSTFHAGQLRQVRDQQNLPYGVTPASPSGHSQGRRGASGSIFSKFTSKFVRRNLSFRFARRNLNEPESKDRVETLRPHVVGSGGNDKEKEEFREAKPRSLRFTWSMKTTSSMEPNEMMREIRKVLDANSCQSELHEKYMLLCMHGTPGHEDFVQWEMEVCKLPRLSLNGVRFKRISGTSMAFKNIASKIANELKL

[5] = target: Mitogen-activated protein kinase 1 (Homo sapiens, UniProt P28482)
[6] = target: T2, Serine/threonine-protein kinase Sgk1 (Homo sapiens, UniProt O00141)
T2 sequence (O00141 whole entry): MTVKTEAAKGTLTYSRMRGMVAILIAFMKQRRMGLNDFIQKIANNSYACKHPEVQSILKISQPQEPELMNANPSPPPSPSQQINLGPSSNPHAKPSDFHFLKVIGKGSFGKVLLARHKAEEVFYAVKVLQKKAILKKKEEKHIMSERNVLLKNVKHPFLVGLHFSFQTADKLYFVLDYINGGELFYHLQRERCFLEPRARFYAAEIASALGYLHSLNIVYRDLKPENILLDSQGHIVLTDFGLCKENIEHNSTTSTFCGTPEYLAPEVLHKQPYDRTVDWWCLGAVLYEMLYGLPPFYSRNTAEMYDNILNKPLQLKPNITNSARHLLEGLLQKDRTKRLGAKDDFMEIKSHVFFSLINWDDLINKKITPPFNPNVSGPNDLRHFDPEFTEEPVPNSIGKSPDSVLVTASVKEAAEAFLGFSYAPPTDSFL

[7] = target: Proto-oncogene tyrosine-protein kinase Src (Homo sapiens, UniProt P12931)
[8] = target: Cyclin-dependent kinase 1 (Homo sapiens, UniProt P06493)
[9] = target: Casein kinase II (Homo sapiens, UniProt P19784+P67870+P68400)
[10] = target: MAP kinase-activated protein kinase 2 (Homo sapiens, UniProt P49137)

Row | Compound | pIC50 [1] | pIC50 [2] | pIC50 [3] | pIC50 [4] | pIC50 [5] | pIC50 [6] | pIC50 [7] | pIC50 [8] | pIC50 [9] | pIC50 [10]
1 | O=C(NCc1ccncc1)c1ccc2c(c1)Cc1c(-c3ccc(-c4ccc(O)cc4)cc3)n[nH]c1-2 | 4.99 | < 4.30 | 5.31 | 5.34 | < 4.30 | 4.82 | < 4.30 | < 4.30 |  | 
2 | O=C(N[C@H]1CC[C@H](O)CC1)c1ccc2c(c1)Cc1c(-c3ccc(-c4ccc(O)cc4)cc3)n[nH]c1-2 | < 4.30 | < 4.30 | < 4.48 | < 4.30 | < 4.30 | 5.88 | < 4.30 | < 4.30 | 4.39 | < 4.30
